Data as given in PubChem BioAssay AID1259405 (NCATS, 2018).

- Aim: 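Silenced genes that increase secreted GFP made by CHO cells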 (primary screen)
- System: Chinese hamster CHO-K1 ovary cells with stable secreted eGFP expression
- Reagent: single siRNA against mouse genes, 0.8 pmol siRNA per well (2 µl of 400 nM stock)
- Time to read-out: 3 days
- Measured: 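Per-well intracellular GFP measured by laser scanning cytometry, plus viability from ATP luminescence, each relative to plate median of non-targeting control wells, in %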
- Reading the numbers: GFP, % of control: higher = more GFP per well, higher productivity; viability (ATP), % of control: higher = more viable cells (more ATP)
- Hit rule: 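a knock-down is called active if GFP reaches 120% or more of non-targeting control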
Shown is an unselected part of about 50,000 reagents. In the full data, about 4,000 (8%) are marked active. 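Mouse siRNA library applied to hamster cells; one well for each siRNA.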 Reagents against one gene are numbered here.

Gene,reagent,"GFP, % of control","viability (ATP), % of control",activity call
Myo10 (myosin X),1,80.5,95.2,inactive
Myo10 (myosin X),2,84.7,83,inactive
Pthlh (parathyroid hormone-like peptide),1,74.8,76.5,inactive
Pthlh (parathyroid hormone-like peptide),2,52.1,68.6,inactive
Pthlh (parathyroid hormone-like peptide),3,136,65.7,active
"Sdr16c5 (short chain dehydrogenase/reductase family 16C, member 5)",1,111,104,inactive
"Sdr16c5 (short chain dehydrogenase/reductase family 16C, member 5)",2,28.7,33,inactive
"Sdr16c5 (short chain dehydrogenase/reductase family 16C, member 5)",3,61.3,49.7,inactive
Ust (uronyl-2-sulfotransferase),1,76.8,97.1,inactive
Ust (uronyl-2-sulfotransferase),2,84.2,110,inactive
Ust (uronyl-2-sulfotransferase),3,76.9,122,inactive
Ctf1 (cardiotrophin 1),1,74.6,86,inactive
Ctf1 (cardiotrophin 1),2,73,52.4,inactive
Ctf1 (cardiotrophin 1),3,93.3,116,inactive
Asf1a (anti-silencing function 1A histone chaperone),1,51.8,39.4,inactive
Asf1a (anti-silencing function 1A histone chaperone),2,65.9,76.8,inactive
Asf1a (anti-silencing function 1A histone chaperone),3,107,81.3,inactive
Antkmt (adenine nucleotide translocase lysine methyltransferase),1,72.9,63.7,inactive
Antkmt (adenine nucleotide translocase lysine methyltransferase),2,58.9,60.8,inactive
Antkmt (adenine nucleotide translocase lysine methyltransferase),3,104,98.6,inactive
Pcdha1 (protocadherin alpha 1),1,60.6,51.6,inactive
Pcdha1 (protocadherin alpha 1),2,43.3,48.7,inactive
Pcdha1 (protocadherin alpha 1),3,61.4,44.8,inactive
Nostrin (nitric oxide synthase trafficker),1,99.2,75.5,inactive
Nostrin (nitric oxide synthase trafficker),2,178,79.9,active
Nostrin (nitric oxide synthase trafficker),3,90.9,81.6,inactive
Chek2 (checkpoint kinase 2),1,176,124,active
Chek2 (checkpoint kinase 2),2,74,66.1,inactive
Chek2 (checkpoint kinase 2),3,94.4,90,inactive
Macrod2 (mono-ADP ribosylhydrolase 2),1,69.8,76.1,inactive
Macrod2 (mono-ADP ribosylhydrolase 2),2,52.2,64.9,inactive
Macrod2 (mono-ADP ribosylhydrolase 2),3,74.9,81.2,inactive
Fig4 (FIG4 phosphoinositide 5-phosphatase),1,62.8,57.1,inactive
Fig4 (FIG4 phosphoinositide 5-phosphatase),2,77.1,58.4,inactive
Fig4 (FIG4 phosphoinositide 5-phosphatase),3,68.3,104,inactive
"Lnpk (lunapark, ER junction formation factor)",1,69.6,74.8,inactive
"Lnpk (lunapark, ER junction formation factor)",2,97.8,72,inactive
"Lnpk (lunapark, ER junction formation factor)",3,63.7,79.3,inactive
"Nlrp4b (NLR family, pyrin domain containing 4B)",1,59.6,67.5,inactive
"Nlrp4b (NLR family, pyrin domain containing 4B)",2,76.5,97.9,inactive
"Nlrp4b (NLR family, pyrin domain containing 4B)",3,62.1,54.7,inactive

Records listed above with an active call:
Gene,reagent,"GFP, % of control","viability (ATP), % of control",activity call
Pthlh (parathyroid hormone-like peptide),3,136,65.7,active
Nostrin (nitric oxide synthase trafficker),2,178,79.9,active
Chek2 (checkpoint kinase 2),1,176,124,active

The results go on:
Gene,reagent,"GFP, % of control","viability (ATP), % of control",activity call
"Irx3os (iroquois homeobox 3, opposite strand)",1,61,88.2,inactive
"Irx3os (iroquois homeobox 3, opposite strand)",2,71.1,84.5,inactive
"Irx3os (iroquois homeobox 3, opposite strand)",3,68.6,74.4,inactive
Tdrd7 (tudor domain containing 7),1,54.1,65.8,inactive
Tdrd7 (tudor domain containing 7),2,75.4,70.3,inactive
Tdrd7 (tudor domain containing 7),3,59.6,48,inactive
H2bc6 (H2B clustered histone 6),1,46.1,63.3,inactive
H2bc6 (H2B clustered histone 6),2,97,98.9,inactive
H2bc6 (H2B clustered histone 6),3,105,102,inactive
Lyrm7 (LYR motif containing 7),1,80.9,92.2,inactive
Lyrm7 (LYR motif containing 7),2,106,80.9,inactive
Lyrm7 (LYR motif containing 7),3,41.4,44.4,inactive
Wdr1 (WD repeat domain 1),1,78.1,84.1,inactive
Wdr1 (WD repeat domain 1),2,59.9,56.8,inactive
Wdr1 (WD repeat domain 1),3,68.1,50.6,inactive
Wee1 (WEE 1 homolog 1 (S. pombe)),1,105,56.9,inactive
Wee1 (WEE 1 homolog 1 (S. pombe)),2,61.3,70.3,inactive
Wee1 (WEE 1 homolog 1 (S. pombe)),3,76.9,73.9,inactive
Eral1 (Era like 12S mitochondrial rRNA chaperone 1),1,129,105,active
Eral1 (Era like 12S mitochondrial rRNA chaperone 1),2,152,104,active
Eral1 (Era like 12S mitochondrial rRNA chaperone 1),3,43.8,57.9,inactive
Lrrtm3 (leucine rich repeat transmembrane neuronal 3),1,61.7,48,inactive
Lrrtm3 (leucine rich repeat transmembrane neuronal 3),2,73.4,75,inactive
Lrrtm3 (leucine rich repeat transmembrane neuronal 3),3,76.1,102,inactive
Adrm1,1,58.6,62.9,inactive
Adrm1,2,62.3,42.9,inactive
Adrm1,3,81.4,76.8,inactive
Eras (ES cell-expressed Ras),1,123,155,active
Eras (ES cell-expressed Ras),2,40.4,46.3,inactive
Eras (ES cell-expressed Ras),3,96.6,74.5,inactive
Grb7 (growth factor receptor bound protein 7),1,42.9,60.1,inactive
Grb7 (growth factor receptor bound protein 7),2,75.2,89.2,inactive
Grb7 (growth factor receptor bound protein 7),3,62.9,50.7,inactive
Wrnip1 (Werner helicase interacting protein 1),1,108,123,inactive
Wrnip1 (Werner helicase interacting protein 1),2,105,68.9,inactive
Wrnip1 (Werner helicase interacting protein 1),3,55.4,63.6,inactive
Tada1 (transcriptional adaptor 1),1,51.1,78.4,inactive
Tada1 (transcriptional adaptor 1),2,215,131,active
Tada1 (transcriptional adaptor 1),3,59.9,96.7,inactive
Mllt10,1,96.3,80.6,inactive
Mllt10,2,74.9,86.2,inactive
Mllt10,3,38.1,39.8,inactive
Slco1a6,1,116,42.3,inactive
Slco1a6,2,77.7,66,inactive
Slco1a6,3,64.6,81.6,inactive
